Primary screen of a compound library

Chains of the proteins cited; added tags and fusions are not shown.
UniProt E9BF75, entry or part of it: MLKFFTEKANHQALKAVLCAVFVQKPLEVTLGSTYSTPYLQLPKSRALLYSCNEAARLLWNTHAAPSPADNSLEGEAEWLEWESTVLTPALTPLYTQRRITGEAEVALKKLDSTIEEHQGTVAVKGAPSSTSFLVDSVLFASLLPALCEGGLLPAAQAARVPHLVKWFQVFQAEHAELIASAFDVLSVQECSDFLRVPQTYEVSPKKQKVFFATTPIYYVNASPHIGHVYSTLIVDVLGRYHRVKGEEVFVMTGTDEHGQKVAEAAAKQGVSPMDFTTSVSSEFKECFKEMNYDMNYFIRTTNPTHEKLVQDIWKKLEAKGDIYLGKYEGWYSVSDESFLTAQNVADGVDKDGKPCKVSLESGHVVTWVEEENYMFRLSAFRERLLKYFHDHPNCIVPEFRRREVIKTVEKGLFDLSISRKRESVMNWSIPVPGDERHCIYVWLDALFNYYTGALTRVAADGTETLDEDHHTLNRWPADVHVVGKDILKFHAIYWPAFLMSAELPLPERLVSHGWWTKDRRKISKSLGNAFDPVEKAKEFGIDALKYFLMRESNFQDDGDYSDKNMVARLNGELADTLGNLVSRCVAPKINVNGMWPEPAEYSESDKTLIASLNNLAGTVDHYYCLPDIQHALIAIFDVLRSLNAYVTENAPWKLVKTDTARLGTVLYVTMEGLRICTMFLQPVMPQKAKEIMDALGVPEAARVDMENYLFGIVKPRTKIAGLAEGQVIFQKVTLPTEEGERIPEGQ

Data taken from ChEMBL document CHEMBL3988442, “University of Dundee, Small-Polar-MMV Screening Library” (2021).

A: 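Assay on Mycobacterium tuberculosis, filed only as a heat shock assay from Cornell; the read-out is not stated. The concentration is filed as 10 mM, unlikely as a test dose, so the dose is not known. The record gives no direction; compounds that gave an IC50 in retests scored well above the rest, so higher reads as stronger inhibition. About 69,000 compounds were tested under these conditions; 1.4% (about 930) showed 50% or more at least once.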
B: 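Primary screen of methionyl-tRNA synthetase; the read-out is not stated. Target: Methionyl-tRNA synthetase (putative), Leishmania donovani (UniProt E9BF75). The test concentration is not given. Values are per cent inhibition. About 68,000 compounds were tested under these conditions; 0.035% (about 24) showed 50% or more at least once.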
C: 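Whole-cell assay for inhibitors of Mycobacterium tuberculosis growth, labelled Cornell in the record; the read-out is not stated. The concentration is filed as 10 mM, unlikely as a test dose, so the dose is not known. Higher means stronger inhibition (inferred from two other growth screens of the library). Of about 53,000 compounds tested this way, about 900 (1.7%) reached 50% or more in at least one test.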

All values are in %. How 0% and 100% were set is not recorded. Most values in the screen are low, and negative values occur. The compounds are a random part of those screened. A dash means the value is not listed here; it may have been measured.

compound	A	B	C
CCCN1CCN(C(=O)Nc2ccccc2Cl)[C@H]2CS(=O)(=O)C[C@H]21	-	5.363	-
O=C(Cn1ncc2c(c1=O)CCCCC2)Nc1cccc2[nH]ccc12	4.946	15.55	32.47
CNC(=O)C1(C)CN(Cc2cn(C)c3ccc(F)cc23)CCO1 (configuration not stated)	39.76	7.349	75.75
CCc1nnc2n1CCN(C(=O)c1ccc3c(c1)[nH]c(=O)n3C)C2	-0.7761	18.41	13.13
Cc1c(Cl)cccc1S(=O)(=O)NCC(O)c1cccn1C (configuration not stated)	24.25	2.878	13.42
CCc1cnc(CN(C(C)=O)C2CCN(CC(=O)N3CCCC3)C2)o1 (configuration not stated)	7.35	9.777	2.86
COc1ccc(C(C)NCc2cscn2)cc1Cn1cccn1 (configuration not stated)	-2.105	16.97	4.019
CC(CN1CCCC1)C(=O)NCC1CCN(c2cnn(C)c(=O)c2)CC1 (configuration not stated)	-23.02	14.89	-6.362
Cc1cccc(OCC(O)CN2CCC(Cn3cccn3)CC2)c1 (configuration not stated)	-3.022	9.29	-
O=C(c1ccc2nccn2c1)N(CCO)Cc1ccccc1F	-6.421	2.133	-
CCn1cnnc1CNC(=O)c1cc(Cl)ccc1OC	10.95	9.722	-
c1cncc(COCC2CC[C@H]3[C@H]2OCCN3Cc2ccoc2)c1 (some centres not stated)	-	3.636	-
Cc1ncsc1CN1CC[C@H]2OCC[C@@]2(C(=O)N2CCCC2)C1	-	12.06	-
O=C(O)C(F)(F)F.O=C(O)C(F)(F)F.O=C(O)C(F)(F)F.[H][C@@]12CO[C@@H](CN3CCN(C)CC3)[C@]1([H])CCN(Cc1ccc(C)cc1)C2	-13.57	-	-
Cc1[nH]ccc1C(=O)N1CCC(c2nnc(Cn3ccnc3)n2C)CC1	-30.56	12.5	27.29
NC(=O)NCCC(=O)N1CCC(c2cc(Cc3ccccc3)n[nH]2)CC1	-4.354	10.78	-0.5114
CN(C)C[C@@H]1CN(C2CCN(c3ccccc3Cl)CC2)C[C@@H]1CO	-0.06241	14.01	-30.39
Fc1cnc(N2CCCC3(CN(Cc4ccccc4)CCO3)C2)nc1 (configuration not stated)	-	19.3	-
CNC(=O)c1cc(C)ccc1NCc1cn2cc(C)ccc2n1	1.636	11.27	14.42
Cc1cc(CN2CCN(C(c3ccccc3)c3ccccc3)CC2)no1	17.11	11.74	2.226
O=S(=O)(NCC1CCN(CCN2CCOCC2)C1)c1ccccc1F (configuration not stated)	-7.43	1.282	-24.08
NS(=O)(=O)c1ccc(CNC(=O)c2ccc(Cl)cc2F)cc1	-8.369	8.877	-21.9
CCOc1cc(C(=O)N2CCCC(c3cc(C(N)=O)[nH]n3)C2)ccn1 (configuration not stated)	20.34	8.661	3.054
CCn1nnc2c1C(COC)CN(C(=O)COc1ccccc1)C2 (configuration not stated)	3.553	17.14	17.42
O=C(N1CCCC1)N1C[C@@H]2CN(Cc3ccoc3)CCO[C@@H]2C1	-	13.19	-
CS(=O)(=O)N1CCCC12CCCN(C(=O)c1ccc[nH]1)C2 (configuration not stated)	8.666	9.278	4.558
CC(C)Oc1ncnc2c1CCN(Cc1ccc(F)cc1)CC2.O=C(O)C(F)(F)F	-14.33	-	18.11
Cc1cc(CN(C)C(=O)C(c2ccccc2)N2CCSCC2)no1 (configuration not stated)	-37.95	2.122	-9.804
Cc1nc(COCC2CNCc3nccn3C2)cs1 (configuration not stated)	-22.08	-1.087	-41.52
Cc1csc(C(=O)N2CCC(O)(CN3CCc4ccccc4C3)C2)c1 (configuration not stated)	-13.32	9.647	-
CCNC(=O)c1ccnc(NCC2COc3cc(OC)ccc3C2)c1 (configuration not stated)	2.508	11.85	25.25
CC(C)NC(=O)Cn1cc(-c2ccccc2)cn1	-20.21	18.75	-
O=C(NC[C@H]1OC[C@@H](NC2COC2)[C@@H]1O)C1CCCC1	-13.94	3.729	6.737
Cl.c1nn(C2CCCCC2)cc1-c1cncn1CCCN1CCCCC1	-22.24	-	7.161
COc1ccc2c(c1)s/c(=N\C(=O)CSCC(=O)Nc1nccs1)n2C	6.525	-1.439	-54.16
CC(=O)N[C@@H](CC(C)C)C(=O)N1CCC(n2cc(CO)nn2)CC1	3.284	9.61	-3.186
Cn1nnc2c1C(COCc1ccccn1)CN(C(=O)c1cccs1)C2.O=C(O)C(F)(F)F (configuration not stated)	-22.94	-	2.221
CCS(=O)(=O)N1CC[C@H]2CO[C@H](CN(C)C)[C@H]2C1	-	-0.6667	-
CCCc1nnc(N2CCN(C3CCCC3)CC2)o1	14.6	13.24	-
Cc1csc(CN2CC[C@H]3C[C@@H](c4nc(C)no4)O[C@@H]3C2)n1	-	-6.25	-
O=C(c1cc2cc(F)ccc2[nH]1)N1CCCCC1Cn1cccn1 (configuration not stated)	-13.01	18.07	-
COCCN(Cc1noc(-c2ccc(OC)cc2)n1)C1CC1	-12.78	12.98	34.36
O=C(COc1coc(CN2CCSCC2)cc1=O)c1ccccc1	-7.197	14.58	13.58
CC(C)c1nc(O)c2nnn(C[C@@H]3CCCN(Cc4cccs4)C3)c2n1	24.92	8.399	-1.486
COc1cccc(-n2c(C)cc(C(=O)NS(C)(=O)=O)c2C)c1	9.916	9.859	23.45
[H][C@]12CC[C@]([H])(CN(C3Cc4ccccc4C3)C1)N(C(=O)CCOC)C2	3.996	-	-
O=C(C1CCCC1)N1CCC2(CC1)OCCO2	7.351	10.14	-21.62
Cc1ccc(CN2CCC3(CCC3NS(=O)(=O)c3ccccc3)CC2)o1.O=C(O)C(F)(F)F (configuration not stated)	-19.95	-	16.71
CCN(CCNCc1cccc(C#N)c1)C1CC1	-17.97	8.707	24.79
CNC(=O)CCS(=O)(=O)Cc1nnnn1-c1ccccc1	1.019	0.2717	-19.53
Cc1cc(NC(=O)c2ccc(F)cc2Br)n(C)n1	-11.23	2.326	7.952
Cc1ccc(CN2CC[C@H]3[C@@H]2CCC(=O)N3CCN2CCCC2)s1	-	-1.742	-
Cc1c[nH]c(CN(C)C(=O)CCn2cnc3ccccc32)n1	-6.666	13.73	4.923
Cc1c(C2CC(=O)Nc3c2cnn3C(C)C)cnn1C (configuration not stated)	8.064	13.18	25.15
CCC(=O)N1CCC2(COCc3c(C)nc(NCc4ccco4)nc32)C1 (configuration not stated)	-2.427	7.317	24.35

Some entries from above, unchanged:

Result for CNC(=O)CCS(=O)(=O)Cc1nnnn1-c1ccccc1 was A: 1.019%; B: 0.2717%; C: -19.53%.
Result for COc1cccc(-n2c(C)cc(C(=O)NS(C)(=O)=O)c2C)c1 was A: 9.916%; B: 9.859%; C: 23.45%.
Result for CNC(=O)c1cc(C)ccc1NCc1cn2cc(C)ccc2n1 was A: 1.636%; B: 11.27%; C: 14.42%.
Result for CC(CN1CCCC1)C(=O)NCC1CCN(c2cnn(C)c(=O)c2)CC1 (configuration not stated) was A: -23.02%; B: 14.89%; C: -6.362%.
Result for CNC(=O)C1(C)CN(Cc2cn(C)c3ccc(F)cc23)CCO1 (configuration not stated) was A: 39.76%; B: 7.349%; C: 75.75%.
Result for Cc1c(Cl)cccc1S(=O)(=O)NCC(O)c1cccn1C (configuration not stated) was A: 24.25%; B: 2.878%; C: 13.42%.